The record followed here is paper PMC9139026.

The test system of the data set is C/EBPα. Briefly: EMSA. The note with it: LightShift Chemiluminescent EMSA Kit per manufacturer; pH and temperature not stated; protein in an extract; label: 5' biotin.

The exact form of at least one protein or probe is not confirmed. At least one result comes from cells or an extract, where the contact may be indirect. At least one verdict rests on a figure or table, not on a statement of the authors.

For the sequence “CATGCTTCATGTCGAAACAGACAAATGATG (double strand) [L. crocea fads2 promoter C/EBPα probe]”, the binding result is “binds”.
As to “AGAGTCACACCATTTCACCACGTAGGTGTG (double strand) [O. mykiss fads2 promoter C/EBPα probe]”, the binding result is listed as “binds”.
